Measured values: paper doi:10.1101/2025.10.30.685510
Results are given in words; binding and its absence hold for the method and conditions named. In cells and extracts the contact can be indirect. Some entries that bind do so weakly or less than the wild type.

Protein sequences, listed by entry. Tags and fused reporters are not part of them.
UniProt Q2G184: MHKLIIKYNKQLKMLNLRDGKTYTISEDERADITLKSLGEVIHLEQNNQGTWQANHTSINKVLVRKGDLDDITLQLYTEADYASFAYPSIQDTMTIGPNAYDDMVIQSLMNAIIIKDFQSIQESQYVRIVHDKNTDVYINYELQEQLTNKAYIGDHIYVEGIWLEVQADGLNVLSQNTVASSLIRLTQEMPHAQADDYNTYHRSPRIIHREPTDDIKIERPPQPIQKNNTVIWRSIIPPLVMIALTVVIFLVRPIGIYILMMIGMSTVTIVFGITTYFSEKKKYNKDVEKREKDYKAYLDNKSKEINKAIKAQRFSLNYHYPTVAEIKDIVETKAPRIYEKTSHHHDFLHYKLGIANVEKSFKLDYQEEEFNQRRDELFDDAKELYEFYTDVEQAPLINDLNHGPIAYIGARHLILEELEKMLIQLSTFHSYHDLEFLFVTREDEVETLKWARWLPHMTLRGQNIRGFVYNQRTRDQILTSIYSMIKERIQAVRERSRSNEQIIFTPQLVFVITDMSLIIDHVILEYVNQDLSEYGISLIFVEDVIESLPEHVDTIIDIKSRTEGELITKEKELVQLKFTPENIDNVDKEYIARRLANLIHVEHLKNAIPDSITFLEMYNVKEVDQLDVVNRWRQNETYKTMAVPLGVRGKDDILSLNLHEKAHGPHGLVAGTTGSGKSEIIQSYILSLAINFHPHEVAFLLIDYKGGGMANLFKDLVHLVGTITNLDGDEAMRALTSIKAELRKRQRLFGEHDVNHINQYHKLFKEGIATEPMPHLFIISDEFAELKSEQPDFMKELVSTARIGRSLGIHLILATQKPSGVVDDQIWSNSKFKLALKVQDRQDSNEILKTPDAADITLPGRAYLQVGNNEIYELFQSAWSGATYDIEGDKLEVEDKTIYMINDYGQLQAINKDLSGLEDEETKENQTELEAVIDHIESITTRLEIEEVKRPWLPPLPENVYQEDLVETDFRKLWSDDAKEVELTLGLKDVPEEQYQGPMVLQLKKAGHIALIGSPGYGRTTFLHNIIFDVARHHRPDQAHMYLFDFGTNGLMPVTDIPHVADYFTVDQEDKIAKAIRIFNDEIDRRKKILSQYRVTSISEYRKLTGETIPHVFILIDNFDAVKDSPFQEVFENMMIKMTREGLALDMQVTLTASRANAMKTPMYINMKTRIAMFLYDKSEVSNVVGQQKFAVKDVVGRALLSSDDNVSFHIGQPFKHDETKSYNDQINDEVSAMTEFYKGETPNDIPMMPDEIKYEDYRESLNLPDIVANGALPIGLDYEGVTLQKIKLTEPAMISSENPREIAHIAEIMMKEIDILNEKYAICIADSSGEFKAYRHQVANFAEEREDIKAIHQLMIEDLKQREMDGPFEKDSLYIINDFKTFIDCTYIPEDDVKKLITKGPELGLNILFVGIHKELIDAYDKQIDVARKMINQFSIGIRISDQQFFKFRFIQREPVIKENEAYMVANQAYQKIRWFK
UniProt Q2G189: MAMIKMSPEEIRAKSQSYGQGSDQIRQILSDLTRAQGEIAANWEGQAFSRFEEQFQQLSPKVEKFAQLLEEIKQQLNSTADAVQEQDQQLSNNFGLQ
UniProt Q2G188: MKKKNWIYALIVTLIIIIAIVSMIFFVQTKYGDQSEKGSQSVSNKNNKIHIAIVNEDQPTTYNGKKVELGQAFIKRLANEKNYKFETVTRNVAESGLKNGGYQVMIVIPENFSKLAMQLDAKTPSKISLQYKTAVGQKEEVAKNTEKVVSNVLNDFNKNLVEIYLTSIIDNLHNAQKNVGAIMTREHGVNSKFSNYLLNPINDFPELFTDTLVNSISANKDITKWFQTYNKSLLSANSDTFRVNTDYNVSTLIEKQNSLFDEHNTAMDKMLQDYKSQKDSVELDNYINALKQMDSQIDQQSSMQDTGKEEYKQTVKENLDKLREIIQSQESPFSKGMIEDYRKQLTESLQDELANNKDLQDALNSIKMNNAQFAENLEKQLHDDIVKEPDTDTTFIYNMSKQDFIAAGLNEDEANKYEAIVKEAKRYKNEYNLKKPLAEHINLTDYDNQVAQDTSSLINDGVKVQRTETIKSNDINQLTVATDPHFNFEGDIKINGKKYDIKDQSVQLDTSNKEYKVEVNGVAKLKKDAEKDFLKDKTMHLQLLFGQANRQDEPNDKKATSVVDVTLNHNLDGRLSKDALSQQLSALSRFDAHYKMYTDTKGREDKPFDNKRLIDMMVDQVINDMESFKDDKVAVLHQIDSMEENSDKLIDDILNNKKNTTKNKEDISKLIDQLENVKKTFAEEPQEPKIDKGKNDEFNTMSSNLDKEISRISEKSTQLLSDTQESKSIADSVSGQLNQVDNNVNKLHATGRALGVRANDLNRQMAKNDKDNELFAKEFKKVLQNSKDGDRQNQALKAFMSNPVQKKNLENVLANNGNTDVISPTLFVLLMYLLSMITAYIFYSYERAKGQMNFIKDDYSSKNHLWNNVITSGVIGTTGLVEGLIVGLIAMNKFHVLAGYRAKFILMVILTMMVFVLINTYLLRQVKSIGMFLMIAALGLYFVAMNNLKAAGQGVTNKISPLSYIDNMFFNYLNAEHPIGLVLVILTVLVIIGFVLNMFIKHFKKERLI
UniProt Q2G185: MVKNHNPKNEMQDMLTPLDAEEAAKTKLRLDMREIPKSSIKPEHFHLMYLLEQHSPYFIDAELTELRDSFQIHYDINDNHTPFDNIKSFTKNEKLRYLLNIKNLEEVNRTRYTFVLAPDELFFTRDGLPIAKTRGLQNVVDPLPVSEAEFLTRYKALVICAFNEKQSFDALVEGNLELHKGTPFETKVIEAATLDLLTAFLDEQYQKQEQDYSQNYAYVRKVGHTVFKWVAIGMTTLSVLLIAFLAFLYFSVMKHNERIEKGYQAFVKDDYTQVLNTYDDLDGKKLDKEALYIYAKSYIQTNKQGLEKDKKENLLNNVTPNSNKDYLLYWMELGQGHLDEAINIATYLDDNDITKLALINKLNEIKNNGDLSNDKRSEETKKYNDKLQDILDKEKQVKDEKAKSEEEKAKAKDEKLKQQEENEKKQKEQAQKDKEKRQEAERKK

biological target: EssC with a C-terminal Twin-Strep tag (Staphylococcus aureus) (UniProt Q2G184); assay: pull-down

| Substance | binding |
| --- | --- |
| EsxA (from UniProt Q2G189 1-97) | binds |
| EsaA (from UniProt Q2G188 1-1009) | binds |
| EssB (from UniProt Q2G185 1-444) | binds |
